Measured values as given in the supplement of paper PMC3741180, “A Novel High Throughput Biochemical Assay to Evaluate the HuR Protein-RNA Complex Formation” (PLoS ONE, 2013).
This is one part of the list. Repeats in this data set agree poorly, so a single value says little.

Protein sequences, listed by entry. Tags and fused reporters are not part of them.
UniProt Q15717, whole entry: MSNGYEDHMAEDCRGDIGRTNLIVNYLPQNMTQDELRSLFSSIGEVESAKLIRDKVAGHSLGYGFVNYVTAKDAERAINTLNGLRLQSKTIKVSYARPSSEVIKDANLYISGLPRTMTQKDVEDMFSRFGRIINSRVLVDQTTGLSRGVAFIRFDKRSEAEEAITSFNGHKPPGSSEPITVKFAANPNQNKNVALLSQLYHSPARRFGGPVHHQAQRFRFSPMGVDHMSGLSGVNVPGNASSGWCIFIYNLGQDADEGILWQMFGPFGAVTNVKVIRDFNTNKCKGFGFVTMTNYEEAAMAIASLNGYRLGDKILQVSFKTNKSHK

These molecules were tested against HuR (ELAVL1) - TNFalpha ARE RNA complex (UniProt Q15717) (assay: AlphaScreen HuR-RNA complex signal Z-score relative to positive (Bi-TNF, DMSO) controls (Z-score (SD units of positive control)); higher = more complex signal). Settings: screen stage: primary screen; compound concentration: 25 nM.

Row | Compound | AlphaScreen HuR-RNA complex signal Z-score
1 | CSc1ccc2c(c1)N(CCC1CCCCN1C)c1ccccc1S2 (stereo not given) | -1.13
2 | NC(N)=Nc1nc(CSCC/C(N)=N/S(N)(=O)=O)cs1 | 0.17
3 | Cc1cc(-c2ccccc2)nnc1NCCN1CCOCC1 | 2.87
4 | COc1ccc(-c2cc(=O)c3c(OC(C)=O)cc(OC(C)=O)cc3o2)cc1 | 2.06
5 | C=CCOC(Cn1ccnc1)c1ccc(Cl)cc1Cl (stereo not given) | 2.61
6 | O=C(/C=C/c1ccc(O)c(O)c1)O[C@@H]1C[C@](O)(C(=O)O)C[C@@H](O)[C@H]1O | 1.24
7 | COc1cc(O)ccc1C(C)=O | 0.549
8 | CC(=O)OCC(=O)[C@H]1CC[C@H]2[C@@H]3CCC4=CC(=O)CC[C@]4(C)[C@H]3CC[C@]12C | 0.719
9 | N=C(N)NCCN1CCCCCCC1 | -0.197
10 | CC(CN(C)C)CN1c2ccccc2Sc2ccccc21 (stereo not given) | -1.05
11 | CC1(C)[C@@H](OC(=O)CCC(=O)O)CC[C@]2(C)[C@H]3C(=O)C=C4[C@@H]5C[C@@](C)(C(=O)O)CC[C@]5(C)CC[C@@]4(C)[C@]3(C)CC[C@@H]12 | 2.1
12 | Nc1ccccc1C(=O)CC(N)C(=O)O (stereo not given) | 2.13
13 | CCN(CC)CCOCCOC(=O)C(CC)(CC)c1ccccc1 | -0.524
14 | CCCOc1ccc(C(=O)OCCN(CC)CC)cc1N | -0.142
15 | CC[C@@H](CO)NCCN[C@@H](CC)CO | 1.36
16 | Cc1cc(O)c2c(O)c3c(O)cccc3cc2c1 | 1.69
17 | C=CCSCC1Nc2cc(Cl)c(S(N)(=O)=O)cc2S(=O)(=O)N1 (stereo not given) | 0.168
18 | c1ccc(CN(CC2=NCCN2)c2ccccc2)cc1 | 0.0329
19 | COc1c(N2CCNC(C)C2)c(F)cc2c(=O)c(C(=O)O)cn(C3CC3)c12 (stereo not given) | -1.61
20 | N[C@@H](C(=O)O)[C@@H](O)[C@H](O)[C@H](O)CO | 3.44
21 | O=C(c1ccccc1)c1ccc2n1CCC2C(=O)O (stereo not given) | 1.12
22 | CCOC(=O)[C@@](C)(N)Cc1ccc(O)c(O)c1 | 0.752
23 | OCc1ccccc1O | 20.5
24 | CC1(C)CC2C1CCC1(C)OC2(C)CCC1O (stereo not given) | 2.26
25 | C=C(C)[C@@H]1CC=C(CO)CC1 | 2.27
26 | COC1=C(OC)C(=O)C(C/C=C(\C)CC/C=C(\C)CC/C=C(\C)CC/C=C(/C)CC/C=C(\C)CC/C=C(\C)CC/C=C(\C)CC/C=C(\C)CC/C=C(\C)CCC=C(C)C)=C(C)C1=O | 1.87
27 | FC(F)(F)COCC(F)(F)F | 0.0994
28 | CCN[C@@H]1C[C@H](N)[C@@H](O[C@H]2OC(CN)=CC[C@H]2N)[C@H](O)[C@H]1O[C@H]1OC[C@](C)(O)[C@H](NC)[C@H]1O | 0.326
29 | CNc1ccccc1C(=O)N1CCc2c([nH]c3ccccc23)C1=O | 0.058
30 | COc1ccc2c(=O)c(CC(=O)O)coc2c1 | 0.366

2 entries drawn at random from the list so far, as already listed:
Row | Compound | AlphaScreen HuR-RNA complex signal Z-score
20 | N[C@@H](C(=O)O)[C@@H](O)[C@H](O)[C@H](O)CO | 3.44
4 | COc1ccc(-c2cc(=O)c3c(OC(C)=O)cc(OC(C)=O)cc3o2)cc1 | 2.06
